Laboratory results taken from patent US4855320A, “5-arylalkyl-4-alkoxy-2(5H)-furanones, intermediates and processes for the preparation thereof and medicaments containing them” (Dr. Willmar Schwabe GmbH & Company, priority 1986, dated 1989).

Assay: Neurotoxicity observation (motility, muscle tonus, respiratory frequency, body temperature, general behaviour)
Set-up: species or system mice (NMRI)
Settings: in vivo, po, mouse; read-out: Neurotoxic limiting dose in the mouse
Protocol: During the above-described experiments, the animals were observed during the whole of the experimental period (up to 4 hours) for signs of substance-caused changes of behaviour and neurotoxicity (motility, muscle tonus, respiratory frequency, body temperature and general behaviour). Up to a dosage of 100 mg./kg., in the case of all the tested compounds, no neurotoxic symptoms were ascertained. In comparison hereto, the following Table 16 sets out the lower limiting dosages of conventional anticonvulsives which, after oral administration, bring about neurotoxicity symptoms in mice.

CN1C(=O)CN=C(c2ccccc2)c2cc(Cl)ccc21 [Diazepam, reference compound]
TD50: 40 mg/kg
